From article PMC4860827 come the findings set out here.

Protein sequences, listed by entry. Tags and fused reporters are not part of them.
UniProt A6NHQ4: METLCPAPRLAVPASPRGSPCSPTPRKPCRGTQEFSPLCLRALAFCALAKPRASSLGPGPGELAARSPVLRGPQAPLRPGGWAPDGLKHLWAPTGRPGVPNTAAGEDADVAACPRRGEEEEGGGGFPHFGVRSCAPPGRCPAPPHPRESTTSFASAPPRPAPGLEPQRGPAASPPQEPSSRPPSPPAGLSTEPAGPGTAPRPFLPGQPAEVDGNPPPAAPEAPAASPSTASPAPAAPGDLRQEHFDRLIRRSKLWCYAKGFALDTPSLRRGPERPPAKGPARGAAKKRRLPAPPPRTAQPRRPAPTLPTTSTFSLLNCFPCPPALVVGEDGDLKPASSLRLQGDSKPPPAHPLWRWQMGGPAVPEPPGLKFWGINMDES

Results are given in words; binding and its absence hold for the method and conditions named. Some entries that bind do so weakly or less than the wild type.

The test addresses PHF19 (human) (UniProt Q5T6S3). The test can be described thus: biochemical purification (co-purification); purification of PHF19; authors' earlier unpublished work, no details given.

Consider C17orf96 (from UniProt A6NHQ4 1-379), for which the binding result is recorded as “binds”.
